PubChem BioAssay AID1053208 – Peter MacCallum Cancer Centre | 2014
The deposit covers about 17,000 reagents; below is an unselected part. 788 of all reagents (4.7%) count as active. 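Calls rest on z-score classes alone; an extra cut-off of viability at most 70% of control was not applied to them.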 Further read-outs or replicates are left out here.

Screen: 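Find knock-downs that sensitise mouse osteosarcoma cells to doxorubicin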 (primary screen)
Cell system: mouse osteosarcoma cells, early-passage culture from an engineered mouse model of fibroblastic bone tumour
Reagents: siRNA pool against mouse genes, 40 nM
Duration: about 120 h (48 h before drug, then 72 h with drug)
Challenge: doxorubicin 100 nM for 72 h, roughly 30-40% inhibitory dose
Measured: 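Viability read as ATP luminescence after 72 h of 100 nM doxorubicin or none, duplicate wells averaged, scaled to non-targeting siRNA, then expressed as robust z-scores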
Reading the numbers: viability z-score with doxorubicin: higher = more viable cells under doxorubicin; viability z-score without drug: higher = more viable cells with knock-down alone
Rule for the call: 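a pool counts as active when its viability z-score with doxorubicin is -2 or below and its z-score without drug lies between -2 and 2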

What did the screen give for Fabp4?
combined z-score class: no change with or without drug; viability z-score with doxorubicin: -0.56; viability z-score without drug: -0.51; activity call: inactive

For Smn1, what does the deposit list?
combined z-score class: high cell count without drug only; viability z-score with doxorubicin: -0.45; viability z-score without drug: 2.02; activity call: inactive

For Ifit2, what was measured?
combined z-score class: no change with or without drug; viability z-score with doxorubicin: -0.45; viability z-score without drug: -1.52; activity call: inactive

With Apc2, what does the deposit list?
combined z-score class: no change with or without drug; viability z-score with doxorubicin: -0.67; viability z-score without drug: 0.84; activity call: inactive

With 2310066E14RIK, what does the deposit list?
combined z-score class: low cell count with and without drug; viability z-score with doxorubicin: -3.48; viability z-score without drug: -2.53; activity call: inactive

Which result is listed for Gmfb?
combined z-score class: no change with or without drug; viability z-score with doxorubicin: 0.22; viability z-score without drug: -0.51; activity call: inactive

For Apbb2, what was measured?
combined z-score class: no change with or without drug; viability z-score with doxorubicin: 0.22; viability z-score without drug: -0.17; activity call: inactive

Which result is listed for Sec24b?
combined z-score class: no change with or without drug; viability z-score with doxorubicin: -0.11; viability z-score without drug: 1.18; activity call: inactive

For Prom2, what was measured?
combined z-score class: no change with or without drug; viability z-score with doxorubicin: -1.12; viability z-score without drug: 0.17; activity call: inactive

Which result is listed for Dock5?
combined z-score class: no change with or without drug; viability z-score with doxorubicin: -0.67; viability z-score without drug: 1.01; activity call: inactive

With Gtf2ird1, what was measured?
combined z-score class: no change with or without drug; viability z-score with doxorubicin: 0.22; viability z-score without drug: -1.18; activity call: inactive

For Ephx3, what was measured?
combined z-score class: no change with or without drug; viability z-score with doxorubicin: -0.67; viability z-score without drug: 0.17; activity call: inactive

What is on record for Trim50?
combined z-score class: no change with or without drug; viability z-score with doxorubicin: 0; viability z-score without drug: -0.67; activity call: inactive

How did the screen score BC012016?
combined z-score class: no change with or without drug; viability z-score with doxorubicin: -0.34; viability z-score without drug: -0.51; activity call: inactive

What did the screen give for Rbm48?
combined z-score class: no change with or without drug; viability z-score with doxorubicin: -0.45; viability z-score without drug: -1.18; activity call: inactive

With Pld1, what does the deposit list?
combined z-score class: no change with or without drug; viability z-score with doxorubicin: 0.22; viability z-score without drug: 0; activity call: inactive

For Nphs2, what was measured?
combined z-score class: no change with or without drug; viability z-score with doxorubicin: 1.01; viability z-score without drug: -0.17; activity call: inactive

Which result is listed for Snx3?
combined z-score class: no change with or without drug; viability z-score with doxorubicin: -0.45; viability z-score without drug: 0.17; activity call: inactive

For Acsm3, what does the deposit list?
combined z-score class: no change with or without drug; viability z-score with doxorubicin: 0.11; viability z-score without drug: -0.17; activity call: inactive

Which result is listed for Taf13?
combined z-score class: no change with or without drug; viability z-score with doxorubicin: -0.45; viability z-score without drug: -0.84; activity call: inactive

What did the screen give for Saa2?
combined z-score class: no change with or without drug; viability z-score with doxorubicin: 1.35; viability z-score without drug: 0.17; activity call: inactive

What did the screen give for Zfp300?
combined z-score class: no change with or without drug; viability z-score with doxorubicin: -0.67; viability z-score without drug: -1.01; activity call: inactive

With Or5k15, how do the results read?
combined z-score class: low cell count with doxorubicin only; viability z-score with doxorubicin: -2.02; viability z-score without drug: -0.84; activity call: active

With Ifna13, how do the results read?
combined z-score class: no change with or without drug; viability z-score with doxorubicin: -0.22; viability z-score without drug: -0.51; activity call: inactive

What is on record for Vstm4?
combined z-score class: no change with or without drug; viability z-score with doxorubicin: -0.34; viability z-score without drug: 1.52; activity call: inactive

How did the screen score Ints15?
combined z-score class: no change with or without drug; viability z-score with doxorubicin: 0; viability z-score without drug: 0.17; activity call: inactive

What is on record for Foxg1?
combined z-score class: high cell count without drug only; viability z-score with doxorubicin: 0.67; viability z-score without drug: 2.36; activity call: inactive

What is on record for Defb21?
combined z-score class: high cell count without drug only; viability z-score with doxorubicin: -0.67; viability z-score without drug: 2.36; activity call: inactive

As entered above:
Under “viability z-score with doxorubicin”, Smn1 shows -0.45
For “activity call”, Fabp4 is entered as inactive
